# Screen size: about 360,000 compounds; about 9,100 (2.5%) were called active. Inconclusive means that the source gave no clear call. Such entries were picked first, then a sample of the others. Cut-off read from the data, not from the text of the source: active = max response below about -50%; inconclusive = no clear call, values can overlap the other calls; inactive = above that.
# Amino acid sequences for entries named in this document (tags omitted).
# UniProt P35462, whole entry, looked up: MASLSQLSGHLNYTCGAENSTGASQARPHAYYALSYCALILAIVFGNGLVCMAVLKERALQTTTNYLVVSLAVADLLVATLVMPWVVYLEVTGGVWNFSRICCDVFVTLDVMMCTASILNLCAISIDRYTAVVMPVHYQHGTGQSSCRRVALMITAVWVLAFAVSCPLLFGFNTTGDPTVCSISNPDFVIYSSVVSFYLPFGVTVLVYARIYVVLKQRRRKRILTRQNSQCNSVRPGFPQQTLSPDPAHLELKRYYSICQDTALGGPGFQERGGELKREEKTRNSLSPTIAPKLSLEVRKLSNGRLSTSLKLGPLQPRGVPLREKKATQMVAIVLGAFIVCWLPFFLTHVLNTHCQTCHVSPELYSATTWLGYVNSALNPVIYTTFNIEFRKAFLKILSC
# Target: D(3) dopamine receptor (Homo sapiens) (UniProt P35462)
# Test: qHTS of D3 Dopamine Receptor Antagonist: qHTS
# Details: D3R cells, DiscoveRx beta-arrestin luminescence, antagonist mode; active compounds read low
# Outline: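 Cells expressing the human receptor were seeded at 1500 cells/well, incubated overnight at 37 degrees C in 5% CO2, then exposed to library compounds with dopamine controls for 90 minutes at 37 degrees C before luminescent detection.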
# % is set by controls: 0 for no effect and ±100 for the full control effect.
row,Structure (SMILES),"max response, negative = inhibition"
1,CCC(CC)NC(=O)c1cc(OC)c(OC)c(OC)c1,inconclusive: -43.6%
2,CCCN1CCC(NC(=O)CCc2nnc(Cc3cc(OC)ccc3OC)o2)CC1,inactive: 20.2%
3,CN(C)C=NC1=NN(c2cccc(C(F)(F)F)c2)CC1,inconclusive: -30.6%
4,Cn1cnc([N+](=O)[O-])c1Sc1ccc(C(C)(C)C)cc1,inconclusive: -31.8%
5,Cc1cc(C(=O)NC2CCCC(C)C2C)c2ccccc2n1 (stereo not given),inactive: 21.2%
6,COC(=O)c1ccc(NC(=O)c2ccc(NC(=O)C3CCCO3)cc2)cc1 (stereo not given),inactive: 0.131%
7,O=C(CN1C(=O)c2ccccc2S1(=O)=O)Nc1ncc(Cl)cc1Cl,inconclusive: -31.9%
8,CC([NH2+][O-])C(C)(C)NO (stereo not given),inconclusive: -39.2%
9,COc1cc2ccccc2cc1C(=O)N(CCN(C)C)c1nc2c(C)cccc2s1,inactive: -19.6%
10,CN(C)c1ccc(SC#N)cc1,inactive: -13.6%
11,COc1ccc(CN(C)C(=O)c2cc(-c3ccccc3)nc3ccc(C)cc23)c(OC)c1,inactive: 155%
12,CCOc1ccc(C(=O)NCc2ccco2)cc1,inconclusive: -31.3%
13,COc1ccccc1NC(=O)c1nn(-c2ccc(Cl)cc2)ccc1=O,inconclusive: -37.4%
14,CCCOc1ccc(CC(=O)NNC(=S)Nc2ccccc2)cc1Br,active: -56.2%
15,COc1ccccc1-c1cc(C(=O)Nc2cc(C)on2)no1,inconclusive: -30.3%
16,C[C@@H]1O[C@@H](O[C@H]2[C@H](O[C@H]3C[C@]4(C)C(C[C@@H](O)C5C([C@]6(C)CC[C@@H](C(C)(C)O)O6)CC[C@]54C)[C@@]4(C)CC[C@H](O)C(C)(C)C34)O[C@H](CO)[C@@H](O)[C@@H]2O)[C@H](O)[C@H](O)[C@H]1O (stereo not given in full),inconclusive: -46.5%
17,CC(=O)Nc1ccc(NS(=O)(=O)c2cccc3nonc23)cc1,inactive: -0.566%
18,CC(=O)Nc1cc[n+](C(C)C(=O)c2ccc(Br)cc2)cc1 (stereo not given),active: -84%
19,O=C(Nc1ccc(Br)cc1)Nc1ccccc1Cl,inactive: 33.9%
20,Cc1ccc(-c2cccc([C@H]3[C@@H]4C=CC[C@@H](C)[C@@H]4C(=O)N3Cc3ccccc3)c2)cc1,inconclusive: -36.9%
21,COc1cc(/C=N/NC(=O)CCn2c3ccccc3c3ccccc32)ccc1O,inconclusive: -43.6%
22,O=C(OCc1nc2ccc(Cl)cc2n1CCO)c1ccccc1C(=O)c1ccccc1,inactive: 9.99%

row,Structure (SMILES),"max response, negative = inhibition"
1,COC(=O)[C@@H](NC(=O)NC1CCN(Cc2ccccc2)CC1)C(C)C,active: -52.8%
2,NC(=O)CC(NC(=O)c1ccc(Br)cc1)c1ccc(N2CCCCCCC2)c([N+](=O)[O-])c1 (stereo not given),inconclusive: -31.8%
3,Cc1cc(-c2ccc(C)c(S(=O)(=O)NCCN3CCC(C)CC3)c2)on1,inconclusive: -32%
4,CC1CCCCN1Cc1nc2c(c(=O)n(C)c(=O)n2C)n1Cc1c(F)cccc1Cl (stereo not given),inconclusive: -43.9%
5,Cc1ccc(S(=O)(=O)NNc2c3ccccc3nc3ccc(Cl)cc23)cc1,inconclusive: -40.7%
6,O=C(O)CCC1(C(=O)O)OCCc2ccccc21 (stereo not given),inconclusive: -32.2%
7,CCOC(=O)c1csc(NC(=O)c2cc(OC)c(OC)c(OC)c2)n1,inactive: 0%
8,Cc1noc(C)c1NC(=O)N(C)C[C@H]1OCc2cnnn2CCCC(=O)N([C@H](C)CO)C[C@H]1C,inconclusive: -42.7%
9,Cc1cccc(C)c1NC(=O)CN(C)C(=O)Cn1c(=O)cnc2ccccc21,inactive: 28.3%
10,O=C(CN(C(=O)CSc1nc2ccccc2o1)c1ccccc1F)NC1CCCCC1,inconclusive: -33%
11,Cc1ccc(-n2ncc3c(N4CCN(c5ccccc5)CC4)ncnc32)c(C)c1,inactive: 33.1%
12,CC(CNc1ccc([N+](=O)[O-])c2cccnc12)Nc1c([N+](=O)[O-])cc(C(F)(F)F)cc1[N+](=O)[O-] (stereo not given),inconclusive: -41.4%
13,CCOc1ccccc1NC(=O)C(=O)/C=C(\O)c1cc(OC)ccc1OC,active: -52.8%
14,CCOc1ccc(Cl)cc1-c1cc(C(=O)NCC2CCCCC2)[nH]n1,inconclusive: -47%
15,CCCCOCCCNC(=O)C[C@@H]1C[C@@]2(C(=O)OC)CC(C)(C)CC=C2N(Cc2ccco2)C1=O,inconclusive: -30.8%
16,COc1ccc(Br)c(C(=O)NC(C)(C)CO)c1,inconclusive: -46.7%
17,CCCCn1nnnc1C(c1ccccc1OC(F)(F)F)N1CCN(C/C=C/c2ccccc2)CC1 (stereo not given),active: -59%
18,CC(C)C(=O)N1CCN(c2ccc(NC(=O)c3ccco3)cc2Cl)CC1,inactive: 9.45%
19,CN1CCCC(C(=O)C(C#N)c2ccccc2)C1 (stereo not given),inactive: -19.5%
20,CS(=O)(=O)N(CCc1ccccc1)CC(N)=O,inconclusive: -34.3%
21,Cc1cc(C(=O)Nc2cccc3ncccc23)no1,inconclusive: -33.9%
22,C/C(CC(C)(C)C1CCCCC1)=N\NC(N)=S,inconclusive: -40.9%

row,Structure (SMILES),"max response, negative = inhibition"
1,C[C@@H]1CN([C@H](C)CO)C(=O)CCCn2nncc2CO[C@@H]1CN(C)C(=O)c1ccncc1,inconclusive: -31%
2,CC1(C)CC2=C(CO1)C(=S)NC(c1ccccc1)N2CC1CCCO1 (stereo not given),inconclusive: -41.1%
3,O=S(=O)(c1ccc(Cl)s1)N1CCN(C/C=C/c2ccccc2)CC1,active: -82.2%
4,C[C@@H](C(=O)Nc1ccc2ccccc2c1)[C@@H]1C[C@@]1(C)[C@@H](NC(=O)c1cnccn1)c1ccccc1,active: -75.5%
5,CC(C)CC1=NN2C(=N)/C(=C\c3coc4ccccc4c3=O)C(=O)N=C2S1,inactive: 3.43%
6,O=C(O)c1ccc(N/N=C/c2cn(Cc3ccc(F)cc3)c3ccccc23)cc1,inconclusive: -35.6%
7,C[C@H](CO)N1C[C@H](C)[C@@H](CN(C)Cc2ccc(Oc3ccccc3)cc2)Oc2c(NC(=O)c3ccncc3)cccc2C1=O,inconclusive: -36.6%
8,CC1(Cc2ccc(F)c(Cl)c2)C(=O)Nc2c(Cl)cccc21 (stereo not given),inconclusive: -48.1%
9,Cn1c(-c2ccccc2Br)n[nH]c1=S,inconclusive: -39%
10,Cc1cccc(C)c1NC(=O)C(c1ccccc1)n1c(-c2ccccc2)nc2ccccc21 (stereo not given),inconclusive: -34%
11,CC(C)C[C@H]1CNC(=S)N1CC1CCN(CCC2CCCC2)CC1,inconclusive: -48.7%
12,COc1ccc(OCc2nnc(SCC(=O)NNC(=O)c3ccc(C)cc3)n2C)cc1,active: -118%
13,O=C(COC(=O)c1c2c(nc3ccccc13)/C(=C\c1ccco1)CC2)NC1CCCC1,inactive: 22%
14,CSC1=NCCN1C(=O)Cc1cccs1,inconclusive: -40.9%
15,Cc1cccc(C)c1C(OCCN(C)C)C1CCCCC1 (stereo not given),active: -89.3%
16,CCc1ccc(/C=N/NC(=O)c2cc(-c3ccccc3OC)nc3ccccc23)s1,inconclusive: -38.7%
17,CCOc1ccc(OCCCC(=O)NC2=NCCS2)cc1,inconclusive: -32.6%
18,Cc1ccc(C)c(NC(=O)c2nnn(Cc3ccccc3)c2N)c1,inactive: 4.64%
19,Cc1ccccc1CN1CCC(n2nccc2NC(=O)CCOc2ccccc2)CC1,inconclusive: -40.7%
20,COC(=O)c1ccc(CNC(=O)CN2C(=O)NC(Cc3ccccc3)(c3ccccc3)C2=O)cc1 (stereo not given),inactive: 12.1%
21,Cc1cc(Br)cn2c(Cc3ccccc3)c(-c3ccc(C#N)cc3)nc12,inconclusive: -37.1%
22,COc1ccc(-n2c(-c3ccccc3)nnc2-c2ccc(Cl)cc2)cc1,inconclusive: -43.4%

# A second format for some results above:
row	Structure (SMILES)	max response, negative = inhibition
12	COc1ccc(OCc2nnc(SCC(=O)NNC(=O)c3ccc(C)cc3)n2C)cc1	active: -118%
13	O=C(COC(=O)c1c2c(nc3ccccc13)/C(=C\c1ccco1)CC2)NC1CCCC1	inactive: 22%
14	CSC1=NCCN1C(=O)Cc1cccs1	inconclusive: -40.9%

# The list goes on:

row,Structure (SMILES),"max response, negative = inhibition"
1,COc1ccc(NS(=O)(=O)c2ccc(NC(=S)NC(=O)c3ccc(Br)cc3)cc2)nn1,active: -53.1%
2,COCC(C)NS(=O)(=O)c1ccccc1 (stereo not given),inactive: 12.8%
3,COc1ccc(NC(=O)CCCC(=O)c2ccccc2)cc1OC,inactive: -17.8%
4,COc1ccccc1-c1cnc(C(O)c2ccc(CN3CCCCC3)cc2)[nH]1 (stereo not given),inconclusive: -47.7%
5,CCN1C(=O)[C@H]2[C@@H](c3ccc(-c4cccc(Cl)c4)c(OC)c3)N[C@@](CC(C)C)(C(=O)OC)[C@H]2C1=O,inconclusive: -36.7%
6,COc1ccc(N(C)C2=NS(=O)(=O)c3ccccc32)cc1,inconclusive: -31.8%
7,Cc1c(CCOC(=O)c2ccccc2)sc[n+]1Cc1ccccc1,inconclusive: -36.6%
8,Cc1ccc(OCC(=O)Nc2ccc3c(c2)nc(CCN2CCC(C)CC2)n3C)cc1,active: -54.2%
9,CCC(=O)c1ccc(OCC(O)CN2CCN(c3cccc(C(F)(F)F)c3)CC2)cc1 (stereo not given),inconclusive: -33.3%
10,COc1ccc(OCCN2CCN(C(=O)c3ccc(OC)c(OC)c3)CC2)cc1,inactive: 9.11%
11,Cc1cc(C)c(CN2CCC(CO)(CCOc3ccccc3)CC2)cc1C,inconclusive: -49.1%
12,CCCCCCCCCCCCCCCC[n+]1ccccc1,inconclusive: -32.9%
13,Cn1c(-c2sc(=S)n(-c3ccccc3)c2N)nc2ccccc21,inconclusive: -37.1%
14,CCn1nc(NC(=O)C(C)(C)C)c2cc3cccc(C)c3nc21,inactive: 7.81%
15,NC(=O)CC(NC(=O)Cc1cccc2ccccc12)c1ccc(NCCOc2ccccc2)c([N+](=O)[O-])c1 (stereo not given),active: -80.1%
16,Cc1ccc2oc3c(c(=O)c2c1)C(c1cccc(Br)c1)N(Cc1ccco1)C3=O (stereo not given),active: -56%
17,COc1ccc(N(CN2C(=O)C3CC=CCC3C2=O)C(=O)c2ccco2)cc1 (stereo not given),inconclusive: -37.5%
18,COCCN1C(=O)c2ccccc2C(C(=O)NCCN(C)C)C1c1ccc(F)cc1 (stereo not given),active: -63.2%
19,CCCS(=O)(=O)NC(=O)C1(C)CCCN(C(=O)c2ccc(OC)cc2OC)C1 (stereo not given),inactive: 1.27%
